The values below come from article PMC12040169 (PLOS Biology, 2025).

The structures appear in SMILES notation. Some of the results follow.

This assay relates to T1, CTL2-GFP (C. trachomatis L2/434/Bu, GFP-expressing).
T1 construct: L2/434/Bu, GFP-expressing
On the set-up: species or system HeLa; Intracellular C. trachomatis growth in HeLa cells, bulk GFP fluorescence relative to DMSO. The following applies: bulk GFP, single well; 28.5 h, 10 µM; inhibitor.
On to `Cc1noc(C)c1C(=O)Nc1ccc(S(=O)(=O)NCCc2ccccc2)cc1` [CBK268183], for which the “% of control remaining” value came out at 97.4867%.
To `Cc1ccccc1-c1ccccc1CC1(C(N)=O)CCN(C(=O)Cc2ccccc2)CC1` [CBK285724] belongs 98.9437%.
The same measure for `COc1ccc(C(=O)Nc2nc(OC)cnc2-c2ccsc2)cc1` [CBK145293]: 160.881%; for `Cc1ccc2c(c1)CCCN2C(=O)c1cnc2c(c1)c(C)nn2C` [CBK305670]: 108.25%; for `CC1(C)[C@H](Cc2cc(COc3ccccc3)on2)C[C@@H]1NS(C)(=O)=O` [CBK289703]: 126.633%.
The same measure for `Cc1cc(C)n(CC(=O)N2CCCCC2C(=O)O)n1` (stereo not drawn) [CBK305266]: 81.878%.
`O=C(COc1ccc(F)cc1)NCc1ccc(-c2csnn2)cc1` [CBK149315]: the “% of control remaining” value is reported as 112.578%.
To `Cc1ccc2nc(-c3ccc(N4C(Nc5nc(C)cc(C)n5)=NC(=O)CC4C(=O)O)cc3)sc2c1` (stereo not drawn) [CBK266646] belongs 159.969%; to `O=C(O)C(=O)N1CCN(C(=O)c2cc3ccccc3[nH]2)CC1` [CBK288433], 99.5157%.
To `COc1cc(/C=C(\C#N)c2nn(-c3ccccc3)c(N)c2C#N)ccc1Oc1ccc(C(F)(F)F)cc1[N+](=O)[O-]` [CBK262484] belongs 100%; to `Cc1cccc(-c2noc(C)c2C(=O)NCCn2ccc(C)n2)c1` [CBK282656], 136.11%; to `CCN1CCN(CCNC(=O)Nc2ccccc2C)CC1` [CBK267842], 95.5717%.
To `CCNC(=O)c1cnc(-c2cccc(C(F)(F)F)c2)c(-c2cccc(CO)c2)c1` [CBK037557] belongs 181.972%.
For the molecule `FC(F)(F)c1ccc(OCCNc2ccccc2)nc1` [CBK115828], the “% of control remaining” value is listed as 94.9988%.
The same measure for `CC(=O)c1ccc(-c2cnc(N)c(NCC(C)C)n2)s1` [CBK063764]: 216.925%; for `O=C(NCc1nc2ccccc2[nH]1)c1cnc(-c2ccc(Cl)cc2)c(-c2ccco2)c1` [CBK037555]: 75.0931%.
Consider `Cc1ccc2c(c1)c(=O)cc(C(F)(F)F)n2C[C@H]1CCCN1` [CBK285303], for which the “% of control remaining” value is listed as 62.5783%.
To `O=C(O)CCC(=O)NC1CCN(Cc2ccccc2)CC1` [CBK287103] belongs 124.323%; to `COc1cc(OC)cc(C(=O)N(CCC#N)Cc2ccco2)c1` [CBK305133], 137.302%; to `COc1ccc(C(=O)Nc2ccc3c(c2)nc2n3CCN(Cc3ccccc3)C2)cc1` [CBK266820], 164.678%.
Turning to `O=C(c1ccc2c(c1)N(Cc1ccc(F)cc1)C(=O)CO2)c1cccs1` [CBK286410], the “% of control remaining” value is on record as 116.156%.
